What was measured:
[1] = system: T1, GST-4EBP1 (Phas I) peptide (S94)
T1 sequence: EPPMEASQSHLRNS

GST-ATM peptide (S2761) = system: T2, GST-ATM peptide (S2761)
T2 sequence: YKVVPLSQRSGVLE

GST-ATM peptide (S440) = system: T3, GST-ATM peptide (S440)
T3 sequence: PLLMILSQLLPQQR

GST-ATR peptide (S1333) = system: T4, GST-ATR peptide (S1333)
T4 sequence: TVEPIISQLVTVLL

[2] = system: T5, GST-BRCA1 (SQ1) peptide (S1298)
T5 sequence: SASLFSSQCSELED

[3] = system: T6, GST-BRCA1 (SQ2) peptide (S1387)
T6 sequence: DCSGLSSQSDILTT

[4] = system: T7, GST-BRCA1 (SQ3) peptide (S1466)
T7 sequence: SSEYPISQNPEGLS

[5] = system: T8, GST-BRCA2 peptide (S2156)
T8 sequence: KVSPYLSQFQQDKQ

GST-Brca1SQ2 (1341-1440) = GST-Brca1SQ2 (1341-1440) (UniProt P38398)
[6] = system: T9, GST-CHK1 (SQ1) peptide (S317)
T9 sequence: NVKYSSSQPEPRTG

[7] = system: T10, GST-CHK1 (SQ2) peptide (S345)
T10 sequence: VQGISFSQPTCPDH

GST-CUT1 peptide (S1615) = system: T11, GST-CUT1 peptide (S1615)
T11 sequence: GASPVLSQGVDPRS

GST-CtIP peptide (S664) = system: T12, GST-CtIP peptide (S664)
T12 sequence: DPGADLSQYKMDVT

GST-DNA 5B peptide (S72) = system: T13, GST-DNA 5B peptide (S72)
T13 sequence: QPEPPVSQSEISEP

[8] = system: T14, GST-DNA LIG-IV peptide (S132)
T14 sequence: DLKLGVSQQTIFSV

[9] = system: GST-DNA POL-δ peptide (S717)
[10] = system: T15, GST-MRE11 (SQ1) peptide (S264)
T15 sequence: QQLFYISQPGSSVV

[11] = system: T16, GST-MRE11 (SQ2) peptide (S386)
T16 sequence: FSVLRFSQKFVDRV

[12] = system: T17, GST-MRE11 (SQb3) peptide (S531)
T17 sequence: RARALRSQSEESAS

GST-PI-3K peptide (S397) = system: T18, GST-PI-3K peptide (S397)
T18 sequence: DLLMYLSQLVQALK

[13] = system: T19, GST-PP2A (protein phosphatase 2A) peptide (S61)
T19 sequence: LLHIPVSQFKDADL

[14] = system: T20, GST-PTS (123F2) peptide (S61)
T20 sequence: WETPDLSQAEIEQK

[15] = system: T21, GST-RAD17 (SQ1) peptide (S646)
T21 sequence: TWSLPLSQDSASEL

[16] = system: T22, GST-RAD17 (SQ2) peptide (S656)
T22 sequence: ASELPASQPQPFSA

[17] = system: T23, GST-RPA34kD (SQ1) peptide (S33)
T23 sequence: FPAPAPSQAEKKSR

[18] = system: T24, GST-RPA34kD (SQ2) peptide (S52)
T24 sequence: IVPCTISQLLSATL

[19] = system: T25, GST-RPA34kD (SQ3) peptide (S72)
T25 sequence: TGNVEISQVTIVGI

GST-Rad17 (561-670) = biological target: T26, GST-Rad17 (561-670) (UniProt O75943)
T26 sequence: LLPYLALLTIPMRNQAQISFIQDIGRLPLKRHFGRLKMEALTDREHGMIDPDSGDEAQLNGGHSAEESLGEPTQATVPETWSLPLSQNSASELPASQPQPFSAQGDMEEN

[20] = system: T27, GST-WRN (SQ1) peptide (S1141)
T27 sequence: EKAYSSSQPVISAQ

[21] = system: T28, GST-WRN (SQ2) peptide (S1292)
T28 sequence: TIGMHLSQAVKAGC

GST-c-ABL peptide (S446) = system: T29, GST-c-ABL peptide (S446)
T29 sequence: YPGIDLSQVYELLE

[22] = system: T30, GST-p115-RhoGEF peptide (S899)
T30 sequence: RLRPLLSQLGGNSV

[23] = system: GST-p120E4F peptide (S355)
GST-p53 peptide (S37) = system: T31, GST-p53 peptide (S37)
T31 sequence: VLSPLPSQAMDDLM

[24] = system: GST-p53 peptide with serine 15 mutated into threonine
GST-p95 peptide (S343) = system: T32, GST-p95 peptide (S343)
T32 sequence: TPGPSLSQGVSVDE

[25] = system: T33, GST-β-ADAPTIN peptide (S935)
T33 sequence: CRAPEVSQHVYQAY

[26] = system: T34, GST-β3A Adaptin peptide (S1092)
T34 sequence: ELKPVLSQG

[27] = biological target: GSTp53 1-101 fusion protein (UniProt P04637)

For FLAG-tagged wild type ATR/FRP1, the Relative Phosphorylation (%) [1] was 66%, the Relative Phosphorylation (%) (GST-ATM peptide (S2761)) was 22% and the Relative Phosphorylation (%) (GST-ATM peptide (S440)) was 55%. For the same substance, the Relative Phosphorylation (%) (GST-ATR peptide (S1333)) was 10%, the Relative Phosphorylation (%) [2] was 38% and the Relative Phosphorylation (%) [3] was 35%. The Relative Phosphorylation (%) [4] was 33%, the Relative Phosphorylation (%) [5] was 132% and the “in vitro kinase assay” value (GST-Brca1SQ2 (1341-1440)) was “excellent in vitro substrates for ATM and ATR”. It also gave a Relative Phosphorylation (%) [6] of 58%, a Relative Phosphorylation (%) [7] of 73% and a Relative Phosphorylation (%) (GST-CUT1 peptide (S1615)) of 20%. For the same substance, the Relative Phosphorylation (%) (GST-CtIP peptide (S664)) was 12%, the Relative Phosphorylation (%) (GST-DNA 5B peptide (S72)) was 145% and the Relative Phosphorylation (%) [8] was 36%. It also gave a Relative Phosphorylation (%) [9] of 17%, a Relative Phosphorylation (%) [10] of 48% and a Relative Phosphorylation (%) [11] of 17%. The Relative Phosphorylation (%) [12] was 13%, the Relative Phosphorylation (%) (GST-PI-3K peptide (S397)) was 150% and the Relative Phosphorylation (%) [13] was 34%. The Relative Phosphorylation (%) [14] was 40%, the Relative Phosphorylation (%) [15] was 733% and the Relative Phosphorylation (%) [16] was 1060%. It also gave a Relative Phosphorylation (%) [17] of 5%, a Relative Phosphorylation (%) [18] of 31% and a Relative Phosphorylation (%) [19] of 8%. The “in vitro kinase assay” value (GST-Rad17 (561-670)) was “excellent in vitro substrates for ATM and ATR”, the Relative Phosphorylation (%) [20] was 49% and the Relative Phosphorylation (%) [21] was 33%. It also gave a Relative Phosphorylation (%) (GST-c-ABL peptide (S446)) of 8%, a Relative Phosphorylation (%) [22] of 15% and a Relative Phosphorylation (%) [23] of 30%. For the same substance, the Relative Phosphorylation (%) (GST-p53 peptide (S37)) was 31%, the “amount of phosphorylation compared to the wild-type sequence” value [24] was “reduced to 13%, 53%, and 36% compared to the wild-type sequence for ATM, ATR, and DNA-PK, respectively” and the Relative Phosphorylation (%) (GST-p95 peptide (S343)) was 31%. For the same substance, the Relative Phosphorylation (%) [25] was 22%, the Relative Phosphorylation (%) [26] was 22% and the “in vitro kinase activity compared with ATM” value [27] was “ATR/FRP-1 had at least 20-fold less activity than ATM towards GSTp531-101”.

— patent US20030022263
